Part of at least one peptide drawing is inferred or uncertain, most often the ends.
Target: T1, ICE (Homo sapiens, UniProt P29466)
T1 sequence (P29466 120-297): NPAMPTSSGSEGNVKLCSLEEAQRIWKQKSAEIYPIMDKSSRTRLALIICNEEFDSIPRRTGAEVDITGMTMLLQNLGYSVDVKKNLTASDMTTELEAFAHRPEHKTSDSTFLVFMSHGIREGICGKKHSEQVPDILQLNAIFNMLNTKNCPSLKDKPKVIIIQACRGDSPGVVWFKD
T1 sequence (P29466 317-404): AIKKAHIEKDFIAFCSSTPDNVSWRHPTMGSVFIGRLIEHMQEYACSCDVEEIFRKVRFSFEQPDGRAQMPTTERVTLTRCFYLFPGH
Assay: Inhibition of ICE by mechanism based thiol protease inhibitors (diazomethyl ketone, peptide aldehydes)
Assay type: biochemical
Set-up: endogenous in cells; host or cells: THP.1 cells (or human peripheral blood monocytes); cytosolic extract, ammonium sulfate, DEAE, sulfopropyl cation exchange
Text: Characterization of ICE in terms of protease class was ultimately accomplished by the synthesis of two types of mechanism based thiol protease inhibitors, a diazomethyl ketone and a peptide aldehyde, both constructed from the Ac-Tyr-Val-Ala-Asp peptide. The peptidyl diazomethyl ketone (Ac-Tyr-Val-Ala-Asp-CHN2) and the peptide aldehyde (Ac-Tyr-Val-Ala-Asp-CHO) were both synthesized as described in an accompanying patent. […] However, the specificity of action on ICE has been determined by synthesis of a chemically similar peptide aldehyde, Ac-Tyr(dAla)-Val-Ala-Asp-CHO and tested for its ability to inhibit ICE in a competitive and reversible manner.

| Compound | inhibition of ICE activity (mode) |
| --- | --- |
| CC(=O)N[C@@H](Cc1ccc(O)cc1)C(=O)N[C@H](C(=O)N[C@@H](C)C(=O)N[C@@H](CC(=O)O)C(=O)C=[N+]=[N-])C(C)C [Ac-Tyr-Val-Ala-Asp-CHN2] | inhibits ICE activity irreversibly in a time and dose dependant manner |
| CC(=O)N[C@@H](Cc1ccc(O)cc1)C(=O)N[C@H](C(=O)N[C@@H](C)C(=O)N[C@H](C=O)CC(=O)O)C(C)C [Ac-Tyr-Val-Ala-Asp-CHO] | reversibly inhibits ICE in a dose dependant fashion and in a manner competitive with substrate |

Reference: patent EP0533350B1, “DNA encoding precursor interleukin 1B converting enzyme” (Merck & Co., Inc., priority 1991, dated 1993)
